These results are taken from US20160177397, “APTAMER FOR DETECTION OF ALPHA-METHYLACYL-COA RACEMASE AND DIAGNOSTIC KIT THEREOF” (NATIONAL TAIWAN UNIVERSITY, published 2016).

Results from cells or extracts need not show a direct contact. Protein sequences can lack the tags named with them.

Data set [1] addresses T1, AMACR (endogenous, in prostate cancer cell lysate) (Homo sapiens) (UniProt Q9UHK6).
T1 sequence (looked up, limits assumed): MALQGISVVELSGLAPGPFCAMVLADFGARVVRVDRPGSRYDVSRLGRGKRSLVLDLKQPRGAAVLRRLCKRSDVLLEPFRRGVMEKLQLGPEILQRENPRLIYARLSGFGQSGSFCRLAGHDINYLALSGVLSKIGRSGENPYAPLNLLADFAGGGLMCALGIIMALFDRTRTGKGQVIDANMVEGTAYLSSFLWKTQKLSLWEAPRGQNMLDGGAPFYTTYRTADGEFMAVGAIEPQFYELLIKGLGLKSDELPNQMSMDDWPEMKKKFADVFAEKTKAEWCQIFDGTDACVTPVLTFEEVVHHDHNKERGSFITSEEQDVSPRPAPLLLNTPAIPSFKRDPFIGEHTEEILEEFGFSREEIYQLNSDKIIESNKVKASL
Kind of data set: binding assay. The settings on record: ELAA on coated cell lysates; 22Rv1 responsive; LNCaP signal higher than PC3; protein in an extract; protein details: 22Rv1, LNCaP and PC3 cell lysates; label: biotin; single-stranded DNA.

Data set [2] has as its target T2, AMACR (endogenous, in fixed 22Rv1 cells) (Homo sapiens) (UniProt Q9UHK6).
T2 sequence (looked up, limits assumed): T1 sequence (looked up, limits assumed)
Kind of data set: binding assay. Particulars: confocal staining of fixed 22Rv1 cells, cytoplasmic signal, 1 uM aptamer; protein in cells; label: FAM; single-stranded DNA; variant of AMC51.

With “CCCTACGGCGCTAACCCATGCTACGAATTCGTTGTTAAACAATAGGCCACCGTGCTACAA [AMC51]”, the binding result in data set [1] is reported as “binds”.

Regarding “CCCTACGGCGCTAACCCATGCTACGAATTCGTTGTTAAACAATAGGCCACCGTGCTACAA [FAM-AMC51]”, in data set [2], the binding result is on record as “binds”.
